Laboratory results: PubChem BioAssay AID652259 (Drosophila RNAi Screening Center, 2013)

Test: 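Identify new Wingless signalling regulators in fly cells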 (primary screen)
Cells: Drosophila clone 8 imaginal disc epithelial cells
Reagent: long dsRNA against Drosophila genes
Treatment: pathway stimulated by co-transfected Wingless expression plasmid
Measurement: 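Firefly luciferase from a tcf-site Wingless reporter, measured alongside co-transfected Renilla luciferase that tracks transfection; pathway stimulated by a Wingless plasmid; the firefly-to-Renilla ratio is not deposited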
Direction: firefly reporter light: higher = more Wg reporter light, before normalisation; Renilla control light: higher = more transfected or surviving cells
Active means: 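Strong candidates differ from their plate mean by at least two out of four per-plate statistical tests; weak candidates meet just one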
Calls: active = candidate regulator (raises or lowers reporter); inactive = not a candidate
The deposit covers about 22,000 reagents; this is an unselected part of those that have a named target and a result. Over the whole deposit, 233 (1.1%) are marked active. 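Light values are raw, unnormalised plate reads; the ratio scores behind the reporter calls were not deposited.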 Names joined by + are all predicted targets of the reagent. The record does not give: the amount of reagent, the time to read-out, the dose of the treatment.

no.	gene	DRSC id	firefly reporter light, replicate 1	firefly reporter light, replicate 2	Renilla control light, replicate 1	Renilla control light, replicate 2	outcome
1	Scp1 (GeneID 3355102)	DRSC20806	21719		10738		inactive
2	Drip (GeneID 36236)	DRSC07405	8194		2993		inactive
3	CG12541 (GeneID 31650)	DRSC17483	5018		870		inactive
4	CG12541 (GeneID 31650)	DRSC17839	22119		9162		inactive
5	mthl13 (GeneID 246395)	DRSC05238	15779		13280		inactive
6	Bulli (GeneID 38734)	DRSC10974	1376	5440	1069	2115	inactive
7	CG13124 (GeneID 34310)	DRSC02220	6743		1656		inactive
8	CG13877 + pyx	DRSC08347	8839		3108		inactive
9	Arglu1 (GeneID 34320)	DRSC02909	2289	5893	936	2832	inactive
10	tau (GeneID 326116)	DRSC14569	14611		2712		inactive
11	Spn42Db (GeneID 35599)	DRSC05009	1556	4083	131	2181	inactive
12	CG12288 (GeneID 35027)	DRSC02155	1827	6084	1019	3447	inactive
13	CG31924 (GeneID 319030)	DRSC00689	3115	6596	1501	2986	inactive
14	CG33225 (GeneID 2768860)	DRSC03881	11217		5627		inactive

5 entries from above, set out differently.
gene	DRSC id	firefly reporter light, replicate 1	firefly reporter light, replicate 2	Renilla control light, replicate 1	Renilla control light, replicate 2	outcome
CG12541 (GeneID 31650)	DRSC17483	5018		870		inactive
CG12541 (GeneID 31650)	DRSC17839	22119		9162		inactive
mthl13 (GeneID 246395)	DRSC05238	15779		13280		inactive
Bulli (GeneID 38734)	DRSC10974	1376	5440	1069	2115	inactive
CG13124 (GeneID 34310)	DRSC02220	6743		1656		inactive

The list goes on:
no.	gene	DRSC id	firefly reporter light, replicate 1	firefly reporter light, replicate 2	Renilla control light, replicate 1	Renilla control light, replicate 2	outcome
15	BomS6 (GeneID 50206)	DRSC21676	7.85e5	7.90e5	3.76e5	3.13e5	inactive
16	ana2 (GeneID 35878)	DRSC05952	8752		2720		inactive
17	Dtd (GeneID 41371)	DRSC15362	10733		2272		inactive
18	CG11099 (GeneID 37282)	DRSC06034	9372		3136		inactive
19	CG4592 (GeneID 34317)	DRSC02761	11861		4397		inactive
20	tei (GeneID 36521)	DRSC07616	5173		1730		inactive
21	Gr33a (GeneID 34641)	DRSC02589	1351	4071	800	1916	inactive
22	Atx-1 (GeneID 31624)	DRSC18365	17798		9744		inactive
23	AhcyL1 (GeneID 38342)	DRSC08647	4540		2080		inactive
24	CG7131 (GeneID 42197)	DRSC16203	3697	7115	1216	2829	inactive
25	CG14042 + SP555	DRSC02367	2852	5856	636	1240	inactive
26	CG14042 + SP555	DRSC03428	3904	6486	1094	2550	inactive
27	mTerf5 (GeneID 42182)	DRSC16209	2898	7787	1653	2320	inactive
28	sut3 (GeneID 44268)	DRSC07702	4152	7321	1111	2464	inactive
29	mRpS31 (GeneID 39749)	DRSC10556	7291		2651		inactive
